Data source: PubChem BioAssay AID1259279 (Sanger Institute, 2017)

Aim: 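Kinase-wide knock-down seeking synergy with BYL719, cetuximab or trametinib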 (primary screen)
Cells: LS180 human colorectal cancer cells
Reagents: siRNA pool against human genes
Challenge: anchor drug BYL719 at 1 µM, cetuximab at 5 µg/ml or trametinib at 10 nM, or DMSO vehicle only
Read-out: 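Viability as a fraction of non-targeting control and as a replicate-averaged robust z-score, with separate synergy scores for BYL719, cetuximab and trametinib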
Reading the numbers: viability z-score, no drug: higher = more viable cells after knock-down
Call rule: 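a knock-down is called active, meaning essential, if its viability z-score in vehicle alone falls below -3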
Meaning of the calls: active = essential (knock-down alone cuts viability); inactive = no change without drug
The deposit covers 794 reagents; shown is an unselected part. In the full data, 11 (1.4%) got an active call. 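Calls reflect knock-down alone in the vehicle arm, not drug synergy.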 Not all columns of the deposit are shown. Not given: the amount of reagent, the time to read-out.

The opening 3 records as a preview:
{"gene": "PXK (GeneID 54899)", "viability z-score, no drug": -0.467, "call": "inactive"}
{"gene": "SLK (GeneID 9748)", "viability z-score, no drug": 0.86, "call": "inactive"}
{"gene": "BMPR1A (GeneID 657)", "viability z-score, no drug": -0.64, "call": "inactive"}

Results, from the start:
{"gene": "PXK (GeneID 54899)", "viability z-score, no drug": -0.467, "call": "inactive"}
{"gene": "SLK (GeneID 9748)", "viability z-score, no drug": 0.86, "call": "inactive"}
{"gene": "BMPR1A (GeneID 657)", "viability z-score, no drug": -0.64, "call": "inactive"}
{"gene": "ULK3 (GeneID 25989)", "viability z-score, no drug": 0.841, "call": "inactive"}
{"gene": "PTK6 (GeneID 5753)", "viability z-score, no drug": 0.0611, "call": "inactive"}
{"gene": "IGF2R (GeneID 3482)", "viability z-score, no drug": 0.86, "call": "inactive"}
{"gene": "HUS1 (GeneID 3364)", "viability z-score, no drug": 0.711, "call": "inactive"}
{"gene": "MERTK (GeneID 10461)", "viability z-score, no drug": -0.339, "call": "inactive"}
{"gene": "UHMK1 (GeneID 127933)", "viability z-score, no drug": -0.653, "call": "inactive"}
{"gene": "MAP3K14 (GeneID 9020)", "viability z-score, no drug": -1.13, "call": "inactive"}
{"gene": "TESK2 (GeneID 10420)", "viability z-score, no drug": 0.0901, "call": "inactive"}
{"gene": "GRK4 (GeneID 2868)", "viability z-score, no drug": -0.922, "call": "inactive"}
{"gene": "RPS6KA5 (GeneID 9252)", "viability z-score, no drug": -0.967, "call": "inactive"}
{"gene": "TCF7L2 (GeneID 6934)", "viability z-score, no drug": 0.86, "call": "inactive"}
{"gene": "CSNK1A1L (GeneID 122011)", "viability z-score, no drug": 0.156, "call": "inactive"}
{"gene": "TNIK (GeneID 23043)", "viability z-score, no drug": 0.036, "call": "inactive"}
{"gene": "NTRK3 (GeneID 4916)", "viability z-score, no drug": 0.86, "call": "inactive"}
{"gene": "MAPK6 (GeneID 5597)", "viability z-score, no drug": 0.0601, "call": "inactive"}
{"gene": "RIPK4 (GeneID 54101)", "viability z-score, no drug": 0.86, "call": "inactive"}
{"gene": "DGKQ (GeneID 1609)", "viability z-score, no drug": -2.77, "call": "inactive"}
{"gene": "ACVR2B (GeneID 93)", "viability z-score, no drug": -1.21, "call": "inactive"}
{"gene": "KHK (GeneID 3795)", "viability z-score, no drug": -0.71, "call": "inactive"}
{"gene": "BRAF (GeneID 673)", "viability z-score, no drug": -0.59, "call": "inactive"}
{"gene": "TP53BP1 (GeneID 7158)", "viability z-score, no drug": 0.86, "call": "inactive"}
{"gene": "SYK (GeneID 6850)", "viability z-score, no drug": -2.66, "call": "inactive"}
{"gene": "COMMD3 (GeneID 23412)", "viability z-score, no drug": 0.86, "call": "inactive"}
{"gene": "CLK1 (GeneID 1195)", "viability z-score, no drug": 0.86, "call": "inactive"}
{"gene": "NME4 (GeneID 4833)", "viability z-score, no drug": 0.86, "call": "inactive"}
